{
  "sequences": {"note": "Sequences of proteins named here, by UniProt entry; tags and fusion partners are left off.", "UniProt Q86U44": "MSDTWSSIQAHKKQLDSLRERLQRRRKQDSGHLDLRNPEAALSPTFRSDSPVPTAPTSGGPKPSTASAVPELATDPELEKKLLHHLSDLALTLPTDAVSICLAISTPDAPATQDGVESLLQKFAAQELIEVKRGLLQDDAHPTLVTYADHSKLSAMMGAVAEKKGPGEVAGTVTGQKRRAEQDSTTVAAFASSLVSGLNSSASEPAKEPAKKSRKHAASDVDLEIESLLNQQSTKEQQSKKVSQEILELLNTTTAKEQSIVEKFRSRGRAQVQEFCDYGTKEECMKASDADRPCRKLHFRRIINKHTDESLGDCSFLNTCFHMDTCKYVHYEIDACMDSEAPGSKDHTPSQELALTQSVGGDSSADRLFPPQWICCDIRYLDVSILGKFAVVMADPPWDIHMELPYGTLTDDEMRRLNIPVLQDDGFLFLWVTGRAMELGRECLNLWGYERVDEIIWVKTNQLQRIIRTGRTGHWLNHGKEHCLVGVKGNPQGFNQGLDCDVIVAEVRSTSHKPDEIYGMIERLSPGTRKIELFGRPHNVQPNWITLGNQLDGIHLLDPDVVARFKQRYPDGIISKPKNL"},
  "source": "paper PMC8544320",
  "target": "T1, PIWIL4 (human) (UniProt Q7Z3Z4)",
  "T1 sequence": "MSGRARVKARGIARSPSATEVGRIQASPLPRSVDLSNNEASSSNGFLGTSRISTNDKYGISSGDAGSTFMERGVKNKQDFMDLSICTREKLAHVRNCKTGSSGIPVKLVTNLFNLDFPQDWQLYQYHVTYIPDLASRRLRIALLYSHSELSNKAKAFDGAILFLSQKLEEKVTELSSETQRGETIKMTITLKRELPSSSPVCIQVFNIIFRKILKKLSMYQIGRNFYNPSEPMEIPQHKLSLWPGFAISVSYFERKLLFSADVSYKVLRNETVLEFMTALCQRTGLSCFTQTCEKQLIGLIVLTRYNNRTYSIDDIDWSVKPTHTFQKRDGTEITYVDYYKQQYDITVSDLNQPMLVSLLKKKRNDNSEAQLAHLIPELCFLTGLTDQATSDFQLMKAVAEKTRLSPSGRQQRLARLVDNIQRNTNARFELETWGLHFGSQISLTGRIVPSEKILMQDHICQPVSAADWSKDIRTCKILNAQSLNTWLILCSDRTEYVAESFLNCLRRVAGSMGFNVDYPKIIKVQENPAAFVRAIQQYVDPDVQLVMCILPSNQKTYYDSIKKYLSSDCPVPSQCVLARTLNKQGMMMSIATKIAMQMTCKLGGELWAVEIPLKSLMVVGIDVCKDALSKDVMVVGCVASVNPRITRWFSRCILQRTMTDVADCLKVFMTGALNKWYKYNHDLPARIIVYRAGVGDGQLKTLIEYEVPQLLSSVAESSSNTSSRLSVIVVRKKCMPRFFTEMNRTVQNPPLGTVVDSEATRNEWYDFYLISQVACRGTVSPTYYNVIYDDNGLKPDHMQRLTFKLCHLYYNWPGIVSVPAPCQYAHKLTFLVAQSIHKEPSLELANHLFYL",
  "test": "co-IP; BMSCs transfected with METTL3 and PIWIL4 overexpression vectors; lysate incubated overnight at 4°C with anti-METTL3 or anti-PIWIL4 antibody, Protein A/G Plus-Agarose beads; Western blot with METTL3 or PIWIL4 antibodies; homotypic IgG as negative control",
  "note": "Results are given in words; binding and its absence hold for the method and conditions named. In cells and extracts the contact can be indirect. Some results given as binding are weak or reduced against the parent protein; the word gives no strength.",
  "data": [
    {"substance": "METTL3 (methyltransferase like 3) (from UniProt Q86U44 1-580) (enzyme)", "values": [
      {"measurement": "binding", "value": "binds"}
    ]}
  ]
}
